{
  "source": "paper PMC12671168",
  "about": "“The signal peptide of staphylococcal protein A alters the multimeric states of PepV” (Microbiology Spectrum, 2025)",
  "molecular_target": "PepV (Staphylococcus aureus), recombinant His-PepV (Staphylococcus aureus)",
  "assay": "SEC; purified PepV alone or incubated with a 10-fold molar excess of peptide; Agilent SEC-3 or TSKgel Super2000 on HPLC; 0.5 M HEPES pH 7.6, 150 mM NaCl; 0.35 mL/min; absorbance at 280 nm; both purified",
  "note": "These are yes or no findings as the source states them, for the method shown. Binding calls can cover weak binding; strength is not graded here.",
  "data": [
    {"binder": "MKKKNIYSIRKLGVGIASVTLGTLLISGGVTPAANA", "note": "[SpA SP (signal peptide of staphylococcal protein A)]", "values": [
      {"measurement": "binding", "value": "binds"}
    ]},
    {"binder": "MKKKNIYSIRKLGVGIASVTLGTL", "note": "[24 peptide (portion of the SpA SP)]", "values": [
      {"measurement": "binding", "value": "binds"}
    ]}
  ]
}
